Data as given in PubChem BioAssay AID1259254 (NCATS, 2017)
Assay: 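Finding genes that stop cells copying their DNA twice in one cycle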 (primary screen). Cell system: human HCT116 colorectal cancer cells. Reagent: single siRNA against human genes. Time to read-out: 3 days. Measurement: 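Nuclei stained with Hoechst and imaged; cell-cycle phase assigned by DNA content; G2 share scaled per plate, non-targeting siRNA 0%, GMNN siRNA 100%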. Direction: G2 robust z-score: higher = more G2 cells, more excess DNA replication. Active means: 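Active siRNAs have a G2 robust z of 5 or more median absolute deviations over the median, which in these data means about 38% or higher of GMNN control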.
In all, the deposit lists about 59,000 reagents; below is an unselected part. About 1,550 of all reagents (2.6%) were called active. 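G2 share is only a proxy for re-replication; each gene was hit by three separate siRNAs, and active genes were retested.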 Reagents against one gene are numbered here. Not all columns of the deposit are shown. Not given: the amount of reagent.

{"gene symbol": "CSGALNACT2 (GeneID 55454)", "reagent no.": 1, "G2 robust z-score": -0.0244, "activity call": "inactive"}
{"gene symbol": "CSGALNACT2 (GeneID 55454)", "reagent no.": 2, "G2 robust z-score": -0.6, "activity call": "inactive"}
{"gene symbol": "CSGALNACT2 (GeneID 55454)", "reagent no.": 3, "G2 robust z-score": 0.155, "activity call": "inactive"}
{"gene symbol": "GCSAM (GeneID 257144)", "reagent no.": 1, "G2 robust z-score": -0.253, "activity call": "inactive"}
{"gene symbol": "GCSAM (GeneID 257144)", "reagent no.": 2, "G2 robust z-score": 0.495, "activity call": "inactive"}
{"gene symbol": "GCSAM (GeneID 257144)", "reagent no.": 3, "G2 robust z-score": -0.13, "activity call": "inactive"}
{"gene symbol": "SSH1 (GeneID 54434)", "reagent no.": 1, "G2 robust z-score": 2.25, "activity call": "inactive"}
{"gene symbol": "SSH1 (GeneID 54434)", "reagent no.": 2, "G2 robust z-score": 2.28, "activity call": "inactive"}
{"gene symbol": "SSH1 (GeneID 54434)", "reagent no.": 3, "G2 robust z-score": 1.96, "activity call": "inactive"}
{"gene symbol": "LIN7B (GeneID 64130)", "reagent no.": 1, "G2 robust z-score": -0.29, "activity call": "inactive"}
{"gene symbol": "LIN7B (GeneID 64130)", "reagent no.": 2, "G2 robust z-score": 7.62, "activity call": "active"}
{"gene symbol": "LIN7B (GeneID 64130)", "reagent no.": 3, "G2 robust z-score": -0.381, "activity call": "inactive"}
{"gene symbol": "CACNA1G (GeneID 8913)", "reagent no.": 1, "G2 robust z-score": 1.08, "activity call": "inactive"}
{"gene symbol": "CACNA1G (GeneID 8913)", "reagent no.": 2, "G2 robust z-score": -1.52, "activity call": "inactive"}
{"gene symbol": "CACNA1G (GeneID 8913)", "reagent no.": 3, "G2 robust z-score": 0.504, "activity call": "inactive"}
{"gene symbol": "RRP7A (GeneID 27341)", "reagent no.": 1, "G2 robust z-score": 2.05, "activity call": "inactive"}
{"gene symbol": "RRP7A (GeneID 27341)", "reagent no.": 2, "G2 robust z-score": 5.21, "activity call": "active"}
{"gene symbol": "RRP7A (GeneID 27341)", "reagent no.": 3, "G2 robust z-score": 3.23, "activity call": "inactive"}

The list goes on, starting with the last 2 of the part before.
{"gene symbol": "RRP7A (GeneID 27341)", "reagent no.": 2, "G2 robust z-score": 5.21, "activity call": "active"}
{"gene symbol": "RRP7A (GeneID 27341)", "reagent no.": 3, "G2 robust z-score": 3.23, "activity call": "inactive"}
{"gene symbol": "FCRL2 (GeneID 79368)", "reagent no.": 1, "G2 robust z-score": 0.5, "activity call": "inactive"}
{"gene symbol": "FCRL2 (GeneID 79368)", "reagent no.": 2, "G2 robust z-score": -0.253, "activity call": "inactive"}
{"gene symbol": "FCRL2 (GeneID 79368)", "reagent no.": 3, "G2 robust z-score": 0.98, "activity call": "inactive"}
{"gene symbol": "CNGA4 (GeneID 1262)", "reagent no.": 1, "G2 robust z-score": 2.54, "activity call": "inactive"}
{"gene symbol": "CNGA4 (GeneID 1262)", "reagent no.": 2, "G2 robust z-score": 3.14, "activity call": "inactive"}
{"gene symbol": "CNGA4 (GeneID 1262)", "reagent no.": 3, "G2 robust z-score": 1.72, "activity call": "inactive"}
{"gene symbol": "UQCRH (GeneID 7388)", "reagent no.": 1, "G2 robust z-score": -0.393, "activity call": "inactive"}
{"gene symbol": "UQCRH (GeneID 7388)", "reagent no.": 2, "G2 robust z-score": -0.639, "activity call": "inactive"}
{"gene symbol": "UQCRH (GeneID 7388)", "reagent no.": 3, "G2 robust z-score": 0.289, "activity call": "inactive"}
{"gene symbol": "PNLIPRP3 (GeneID 119548)", "reagent no.": 1, "G2 robust z-score": -1.02, "activity call": "inactive"}
{"gene symbol": "PNLIPRP3 (GeneID 119548)", "reagent no.": 2, "G2 robust z-score": 0.655, "activity call": "inactive"}
{"gene symbol": "PNLIPRP3 (GeneID 119548)", "reagent no.": 3, "G2 robust z-score": 0.158, "activity call": "inactive"}
